Data: publication PMC9064840
These are yes or no findings as the source states them, for the method shown. In cells and extracts the contact can be indirect. These calls come from enrichment with a bait or labelling near it, and not all partners need be listed. Values belong to the molecule of their own block, whether it stands above or below them.

Chains of the proteins cited; added tags and fusions are not shown. Residues count along the entry.
UniProt Q01973, residues 30-937: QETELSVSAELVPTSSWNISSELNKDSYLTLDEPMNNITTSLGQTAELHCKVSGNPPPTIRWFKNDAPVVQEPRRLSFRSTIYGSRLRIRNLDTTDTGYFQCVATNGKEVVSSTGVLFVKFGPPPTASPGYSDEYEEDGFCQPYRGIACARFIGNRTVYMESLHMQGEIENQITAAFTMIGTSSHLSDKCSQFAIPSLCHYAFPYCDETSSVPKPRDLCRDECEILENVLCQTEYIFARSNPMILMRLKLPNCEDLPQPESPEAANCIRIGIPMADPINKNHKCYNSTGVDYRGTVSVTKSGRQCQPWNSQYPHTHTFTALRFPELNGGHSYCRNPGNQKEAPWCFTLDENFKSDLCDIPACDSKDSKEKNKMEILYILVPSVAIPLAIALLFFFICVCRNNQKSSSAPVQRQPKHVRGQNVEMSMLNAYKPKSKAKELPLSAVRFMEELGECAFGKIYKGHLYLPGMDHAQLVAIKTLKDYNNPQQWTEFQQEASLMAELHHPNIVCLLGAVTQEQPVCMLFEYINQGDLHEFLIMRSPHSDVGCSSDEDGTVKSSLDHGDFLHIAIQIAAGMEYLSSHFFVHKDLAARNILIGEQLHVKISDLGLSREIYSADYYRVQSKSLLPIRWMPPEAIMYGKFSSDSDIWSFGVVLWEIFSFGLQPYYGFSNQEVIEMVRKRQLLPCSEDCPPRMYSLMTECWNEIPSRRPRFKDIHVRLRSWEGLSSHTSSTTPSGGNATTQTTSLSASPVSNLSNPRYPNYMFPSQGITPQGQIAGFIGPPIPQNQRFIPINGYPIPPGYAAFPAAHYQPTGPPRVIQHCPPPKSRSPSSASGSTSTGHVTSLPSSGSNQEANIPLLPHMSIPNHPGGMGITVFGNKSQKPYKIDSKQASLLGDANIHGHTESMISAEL
UniProt O60884: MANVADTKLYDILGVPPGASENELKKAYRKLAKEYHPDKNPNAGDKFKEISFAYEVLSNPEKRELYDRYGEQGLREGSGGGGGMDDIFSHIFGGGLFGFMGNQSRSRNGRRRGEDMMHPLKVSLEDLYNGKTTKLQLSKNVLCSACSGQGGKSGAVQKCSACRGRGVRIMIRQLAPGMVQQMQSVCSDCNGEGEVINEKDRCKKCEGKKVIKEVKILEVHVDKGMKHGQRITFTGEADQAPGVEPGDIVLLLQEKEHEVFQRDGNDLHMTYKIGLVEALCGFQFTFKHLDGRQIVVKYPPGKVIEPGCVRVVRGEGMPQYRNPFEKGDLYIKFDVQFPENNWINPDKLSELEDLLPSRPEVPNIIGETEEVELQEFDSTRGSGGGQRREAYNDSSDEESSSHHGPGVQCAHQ
UniProt P15927: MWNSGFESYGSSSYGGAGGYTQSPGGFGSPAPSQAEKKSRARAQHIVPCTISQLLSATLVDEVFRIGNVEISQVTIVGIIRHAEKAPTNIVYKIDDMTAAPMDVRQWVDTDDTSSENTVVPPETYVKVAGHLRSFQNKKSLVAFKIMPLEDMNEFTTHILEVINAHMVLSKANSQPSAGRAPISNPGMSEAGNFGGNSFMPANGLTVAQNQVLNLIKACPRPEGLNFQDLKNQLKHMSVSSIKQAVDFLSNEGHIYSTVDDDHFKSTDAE
UniProt P27694: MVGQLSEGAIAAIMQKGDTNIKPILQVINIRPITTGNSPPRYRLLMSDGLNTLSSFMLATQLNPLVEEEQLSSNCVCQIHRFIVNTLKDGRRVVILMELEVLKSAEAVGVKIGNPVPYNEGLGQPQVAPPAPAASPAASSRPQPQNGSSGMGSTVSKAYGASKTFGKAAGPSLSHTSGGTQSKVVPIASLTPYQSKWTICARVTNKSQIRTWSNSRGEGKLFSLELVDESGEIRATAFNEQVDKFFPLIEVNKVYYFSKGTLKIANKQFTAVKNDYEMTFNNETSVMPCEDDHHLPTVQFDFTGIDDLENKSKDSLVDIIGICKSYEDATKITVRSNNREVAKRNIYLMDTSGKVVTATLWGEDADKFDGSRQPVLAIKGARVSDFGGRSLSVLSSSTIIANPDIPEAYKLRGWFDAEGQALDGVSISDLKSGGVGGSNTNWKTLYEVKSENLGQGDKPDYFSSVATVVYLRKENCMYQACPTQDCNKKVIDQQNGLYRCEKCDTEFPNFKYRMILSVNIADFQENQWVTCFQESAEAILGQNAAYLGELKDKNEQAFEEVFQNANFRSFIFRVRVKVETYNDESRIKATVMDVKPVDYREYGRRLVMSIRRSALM

Tests used:
MAC-tagged ROR1 (human) [1] = biological target: MAC-tagged ROR1 (human) (UniProt Q01973); test: proximity labelling; BioID: MAC-tagged ROR1 as bait, induced with tetracycline and 50 μM biotin in Flp-In T-REx 293 cells; 100 µM pervanadate for 15 min before harvest; cells given water or 1 µM GZD824 for 1 h; two biological replicates; high-confidence interactors after statistical filtering
MAC-tagged ROR1 (human) [2] = biological target: MAC-tagged ROR1 (human) (UniProt Q01973); test: affinity purification with mass spectrometry; MAC-tagged ROR1 as bait, induced with 1 μg/ml tetracycline for 24 h in Flp-In T-REx 293 cells; 100 µM pervanadate for 15 min before harvest; cells given water or 1 µM GZD824 for 1 h; two biological replicates; high-confidence interactors after statistical filtering

Molecule: DNA J homolog subfamily A member 2 (from UniProt O60884 1-412)
- binding (MAC-tagged ROR1 (human) [1]): binds
- binding (MAC-tagged ROR1 (human) [2]): binds

Molecule: RPA2 (from UniProt P15927 1-270)
- binding (MAC-tagged ROR1 (human) [1]): binds
- binding (MAC-tagged ROR1 (human) [2]): binds

Further lines, results first:

- binding (MAC-tagged ROR1 (human) [1]): binds
- binding (MAC-tagged ROR1 (human) [2]): binds
Molecule: RPA1 (from UniProt P27694 1-616)

- binding (MAC-tagged ROR1 (human) [1]): binds
- binding (MAC-tagged ROR1 (human) [2]): binds
B1: Hsp90 co-chaperone (CDC37) (protein, UniProt Q16543 1-378)
chain: MVDYSVWDHIEVSDDEDETHPNIDTASLFRWRHQARVERMEQFQKEKEELDRGCRECKRKVAECQRKLKELEVAEGGKAELERLQAEAQQLRKEERSWEQKLEEMRKKEKSMPWNVDTLSKDGFSKSMVNTKPEKTEEDSEEVREQKHKTFVEKYEKQIKHFGMLRRWDDSQKYLSDNVHLVCEETANYLVIWCIDLEVEEKCALMEQVAHQTIVMQFILELAKSLKVDPRACFRQFFTKIKTADRQYMEGFNDELEAFKERVRGRAKLRIEKAMKEYEEEERKKRLGPGGLDPVEVYESLPEELQKCFDVKDVQMLQDAISKMDPTDAKYHMQRCIDSGLWVPNSKASEAKEGEEAGPGDPLLEAVPKTGDEKDVSV
